Results deposited as PubChem BioAssay AID1259308 (NCATS, 2017)

Screen: 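Candidate targets for better recombinant protein yield in mammalian cells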 (primary screen)
System: human HEK293 embryonic kidney cells stably expressing firefly luciferase (HEK-CMV-Luc2-Hygro)
Knock-down reagent: single siRNA against human genes, 0.8 pmol siRNA per well
Timing: 72 h
Measurement: 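Luciferase light (ONE-Glo) measured on one replicate plate set and viability (CellTiter-Glo) on the other, scaled to a negative control siRNA, with robust z-scores and luciferase per cell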
Direction: total luciferase, z-score and total luciferase, % of control: higher = more reporter protein produced; luciferase per cell, z-score: higher = more reporter output per viable cell
Rule for the call: 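Active when the median/MAD z-score for overall luciferase is greater than 3; a gene was taken forward for validation with new siRNAs if at least two of its three siRNAs passed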
Calls: active = raised luciferase; inactive = no rise
Here is one part, drawn at random, of about 59,000 reagents tested. About 1,510 of all reagents (2.6%) count as active. 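Calls use total luciferase alone and ignore viability, so some active siRNAs may act by altering cell number.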 Entries without a mark were called inactive. The numbers tell different reagents against one gene apart. Not all columns of the deposit are shown.

no.	target	reagent	total luciferase, z-score	total luciferase, % of control	luciferase per cell, z-score
1	TNFRSF8	1	0.205	86	-0.155
2	TNFRSF8	2	0.36	89	0.393
3	TNFRSF8	3	0.0711	83.3	-0.182
4	EBI3	1	0.146	84.8	-0.164
5	EBI3	2	-0.839	65.2	-0.432
6	EBI3	3	-0.92	63.6	-1.04
7	OR2B6	1	1.25	107	0.553
8	OR2B6	2	-0.796	66.1	-0.836
9	OR2B6	3	-0.952	62.9	-0.118
10	SCN4A	1	-0.222	77.5	-0.1
11	SCN4A	2	-1.46	52.9	-2.17
12	SCN4A	3	1.28	107	2.09
13	SMG7-AS1	1	-0.179	78.3	-0.675
14	SMG7-AS1	2	0.26	87.1	1.49
15	SMG7-AS1	3	-0.0973	80	0.998
16	IFT25	1	0.158	85	0.658
17	IFT25	2	-0.293	76.1	0.0728
18	IFT25	3	-2.18	38.5	-2.69
19	CD248	1	0.54	92.6	0.861
20	CD248	2	-0.887	64.2	-0.954
21	CD248	3	-2.67	28.9	-1.32
22	VIL1	1	1.34	109	1.09
23	VIL1	2	0.198	85.8	0.124
24	VIL1	3	-0.647	69	-0.85
25	SYCE3	1	-0.279	76.3	-0.299
26	SYCE3	2	-1.91	43.8	-2.28
27	SYCE3	3	-0.358	74.8	0.0097

Entries above whose gene name starts with T or t (3):
target	reagent	total luciferase, z-score	total luciferase, % of control	luciferase per cell, z-score
TNFRSF8	1	0.205	86	-0.155
TNFRSF8	2	0.36	89	0.393
TNFRSF8	3	0.0711	83.3	-0.182

The list goes on:
no.	target	reagent	total luciferase, z-score	total luciferase, % of control	luciferase per cell, z-score
28	MIGA1	1	0.506	91.9	0.822
29	MIGA1	2	1.85	119	0.928
30	MIGA1	3	2.83	138	2.09
31	ZNF347	1	-0.544	71.1	-1.02
32	ZNF347	2	-0.906	63.9	-0.0187
33	ZNF347	3	-0.123	79.4	-0.324
34	CD101	1	-1.04	61.1	-2.03
35	CD101	2	0.798	97.8	0.696
36	CD101	3	-0.384	74.3	0.451
37	HMGB1P40	1	-0.886	64.3	-0.656
38	HMGB1P40	2	-1	61.9	-0.83
39	HMGB1P40	3	0.279	87.4	-0.0932
40	STON1	1	-0.874	64.5	-0.613
41	STON1	2	-0.0308	81.3	0.482
42	STON1	3	-1.74	47.3	-2.28
43	RPS10P15	1	0.428	90.4	0.145
44	RPS10P15	2	1.72	116	2.28
45	RPS10P15	3	-0.599	70	-0.562
46	VEGFD	1	-0.797	66	-0.174
47	VEGFD	2	-1.17	58.7	-1.39
48	VEGFD	3	-0.243	77.1	-0.464
49	CYLD	1	1.84	118	2.89
50	CYLD	2	1.82	118	1.49
51	CYLD	3	2.29	127	1.88
52	GPC3	1	1.99	121	1.67
53	GPC3	2	-1.49	52.3	-1.32
54	GPC3	3	1.41	110	0.692
55	RFC2	1	0.292	87.7	-0.623
56	RFC2	2	-1.36	54.8	-0.676
57	RFC2	3	0.0791	83.5	-0.566
